From the supplement of paper PMC7666118
The other results are listed elsewhere or left out.

The chains behind the UniProt entries cited, without tags or fusion partners. Where a name states a change or a piece, a line headed by the entry shows the natural chain unless it says otherwise.
UniProt Q9NZ53: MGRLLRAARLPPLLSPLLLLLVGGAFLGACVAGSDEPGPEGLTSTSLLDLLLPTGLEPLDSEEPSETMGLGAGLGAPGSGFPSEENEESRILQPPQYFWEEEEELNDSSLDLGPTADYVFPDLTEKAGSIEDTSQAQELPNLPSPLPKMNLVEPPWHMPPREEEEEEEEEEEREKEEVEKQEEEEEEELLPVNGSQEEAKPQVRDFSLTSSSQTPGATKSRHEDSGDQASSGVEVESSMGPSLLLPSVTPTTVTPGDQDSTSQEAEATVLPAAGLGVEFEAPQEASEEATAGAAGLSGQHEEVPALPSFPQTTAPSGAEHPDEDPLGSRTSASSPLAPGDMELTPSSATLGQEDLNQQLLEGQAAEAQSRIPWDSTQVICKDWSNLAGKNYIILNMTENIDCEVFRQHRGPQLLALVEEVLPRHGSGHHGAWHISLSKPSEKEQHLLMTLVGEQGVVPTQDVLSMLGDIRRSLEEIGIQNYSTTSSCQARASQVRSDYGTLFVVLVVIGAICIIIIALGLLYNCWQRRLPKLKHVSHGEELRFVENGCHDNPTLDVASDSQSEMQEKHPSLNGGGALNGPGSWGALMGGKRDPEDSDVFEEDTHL
UniProt Q06323: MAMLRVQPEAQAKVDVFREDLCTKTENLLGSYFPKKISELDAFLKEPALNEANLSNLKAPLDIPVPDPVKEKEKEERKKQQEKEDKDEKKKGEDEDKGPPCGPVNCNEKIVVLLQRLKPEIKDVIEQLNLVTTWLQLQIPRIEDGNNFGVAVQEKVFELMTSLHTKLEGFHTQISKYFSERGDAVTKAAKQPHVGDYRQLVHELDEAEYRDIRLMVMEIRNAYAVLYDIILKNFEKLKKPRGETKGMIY
UniProt Q9Y4D7: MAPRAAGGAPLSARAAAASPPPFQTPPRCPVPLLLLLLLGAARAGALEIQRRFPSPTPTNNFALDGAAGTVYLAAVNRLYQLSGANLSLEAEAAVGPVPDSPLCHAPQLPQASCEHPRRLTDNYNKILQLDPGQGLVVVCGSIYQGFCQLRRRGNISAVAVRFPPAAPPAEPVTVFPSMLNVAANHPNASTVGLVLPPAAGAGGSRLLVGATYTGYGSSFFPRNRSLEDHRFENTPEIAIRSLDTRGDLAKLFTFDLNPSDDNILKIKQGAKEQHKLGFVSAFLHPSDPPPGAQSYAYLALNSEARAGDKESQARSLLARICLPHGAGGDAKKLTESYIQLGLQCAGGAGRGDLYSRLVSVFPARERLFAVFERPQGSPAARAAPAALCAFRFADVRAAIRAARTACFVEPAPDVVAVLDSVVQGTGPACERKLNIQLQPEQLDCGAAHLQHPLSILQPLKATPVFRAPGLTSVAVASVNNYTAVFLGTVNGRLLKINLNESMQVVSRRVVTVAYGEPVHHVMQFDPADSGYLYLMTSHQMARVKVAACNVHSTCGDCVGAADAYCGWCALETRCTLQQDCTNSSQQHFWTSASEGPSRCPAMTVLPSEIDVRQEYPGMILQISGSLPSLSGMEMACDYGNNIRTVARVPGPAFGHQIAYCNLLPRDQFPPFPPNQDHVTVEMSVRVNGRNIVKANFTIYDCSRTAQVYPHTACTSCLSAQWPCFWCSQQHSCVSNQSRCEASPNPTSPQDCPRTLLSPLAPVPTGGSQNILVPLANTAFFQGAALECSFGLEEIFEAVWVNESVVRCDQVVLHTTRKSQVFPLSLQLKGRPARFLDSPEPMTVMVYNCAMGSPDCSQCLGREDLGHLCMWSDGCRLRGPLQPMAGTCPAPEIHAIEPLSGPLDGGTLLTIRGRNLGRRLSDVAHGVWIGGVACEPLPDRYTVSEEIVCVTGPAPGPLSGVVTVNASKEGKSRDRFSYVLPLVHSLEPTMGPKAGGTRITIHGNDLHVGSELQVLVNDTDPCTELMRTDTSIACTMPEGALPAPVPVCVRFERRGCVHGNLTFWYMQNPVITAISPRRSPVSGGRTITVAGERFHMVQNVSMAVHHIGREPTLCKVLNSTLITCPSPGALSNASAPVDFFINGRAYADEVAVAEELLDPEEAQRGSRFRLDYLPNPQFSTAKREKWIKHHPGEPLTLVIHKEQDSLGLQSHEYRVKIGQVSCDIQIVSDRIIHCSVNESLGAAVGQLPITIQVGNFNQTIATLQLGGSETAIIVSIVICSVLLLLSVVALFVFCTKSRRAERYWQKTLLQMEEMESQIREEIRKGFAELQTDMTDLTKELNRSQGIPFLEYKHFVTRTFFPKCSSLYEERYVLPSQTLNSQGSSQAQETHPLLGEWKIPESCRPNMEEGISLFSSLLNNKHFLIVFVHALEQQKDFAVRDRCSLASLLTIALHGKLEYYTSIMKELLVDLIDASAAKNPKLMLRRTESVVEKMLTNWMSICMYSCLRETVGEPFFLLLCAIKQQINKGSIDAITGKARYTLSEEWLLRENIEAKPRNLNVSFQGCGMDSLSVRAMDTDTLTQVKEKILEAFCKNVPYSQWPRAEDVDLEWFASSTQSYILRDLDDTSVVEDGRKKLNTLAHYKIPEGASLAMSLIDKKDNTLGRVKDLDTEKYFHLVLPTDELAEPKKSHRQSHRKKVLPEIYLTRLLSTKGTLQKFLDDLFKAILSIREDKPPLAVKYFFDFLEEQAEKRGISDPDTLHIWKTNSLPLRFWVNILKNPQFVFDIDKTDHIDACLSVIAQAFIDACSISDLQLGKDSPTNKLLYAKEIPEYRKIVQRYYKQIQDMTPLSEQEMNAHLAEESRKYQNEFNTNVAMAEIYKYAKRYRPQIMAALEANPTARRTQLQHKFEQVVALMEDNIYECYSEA
UniProt Q9BT73: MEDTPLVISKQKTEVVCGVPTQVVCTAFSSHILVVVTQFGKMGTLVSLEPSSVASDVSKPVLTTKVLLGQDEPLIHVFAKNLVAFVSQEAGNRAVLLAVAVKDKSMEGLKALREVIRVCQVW
UniProt Q7Z3K3: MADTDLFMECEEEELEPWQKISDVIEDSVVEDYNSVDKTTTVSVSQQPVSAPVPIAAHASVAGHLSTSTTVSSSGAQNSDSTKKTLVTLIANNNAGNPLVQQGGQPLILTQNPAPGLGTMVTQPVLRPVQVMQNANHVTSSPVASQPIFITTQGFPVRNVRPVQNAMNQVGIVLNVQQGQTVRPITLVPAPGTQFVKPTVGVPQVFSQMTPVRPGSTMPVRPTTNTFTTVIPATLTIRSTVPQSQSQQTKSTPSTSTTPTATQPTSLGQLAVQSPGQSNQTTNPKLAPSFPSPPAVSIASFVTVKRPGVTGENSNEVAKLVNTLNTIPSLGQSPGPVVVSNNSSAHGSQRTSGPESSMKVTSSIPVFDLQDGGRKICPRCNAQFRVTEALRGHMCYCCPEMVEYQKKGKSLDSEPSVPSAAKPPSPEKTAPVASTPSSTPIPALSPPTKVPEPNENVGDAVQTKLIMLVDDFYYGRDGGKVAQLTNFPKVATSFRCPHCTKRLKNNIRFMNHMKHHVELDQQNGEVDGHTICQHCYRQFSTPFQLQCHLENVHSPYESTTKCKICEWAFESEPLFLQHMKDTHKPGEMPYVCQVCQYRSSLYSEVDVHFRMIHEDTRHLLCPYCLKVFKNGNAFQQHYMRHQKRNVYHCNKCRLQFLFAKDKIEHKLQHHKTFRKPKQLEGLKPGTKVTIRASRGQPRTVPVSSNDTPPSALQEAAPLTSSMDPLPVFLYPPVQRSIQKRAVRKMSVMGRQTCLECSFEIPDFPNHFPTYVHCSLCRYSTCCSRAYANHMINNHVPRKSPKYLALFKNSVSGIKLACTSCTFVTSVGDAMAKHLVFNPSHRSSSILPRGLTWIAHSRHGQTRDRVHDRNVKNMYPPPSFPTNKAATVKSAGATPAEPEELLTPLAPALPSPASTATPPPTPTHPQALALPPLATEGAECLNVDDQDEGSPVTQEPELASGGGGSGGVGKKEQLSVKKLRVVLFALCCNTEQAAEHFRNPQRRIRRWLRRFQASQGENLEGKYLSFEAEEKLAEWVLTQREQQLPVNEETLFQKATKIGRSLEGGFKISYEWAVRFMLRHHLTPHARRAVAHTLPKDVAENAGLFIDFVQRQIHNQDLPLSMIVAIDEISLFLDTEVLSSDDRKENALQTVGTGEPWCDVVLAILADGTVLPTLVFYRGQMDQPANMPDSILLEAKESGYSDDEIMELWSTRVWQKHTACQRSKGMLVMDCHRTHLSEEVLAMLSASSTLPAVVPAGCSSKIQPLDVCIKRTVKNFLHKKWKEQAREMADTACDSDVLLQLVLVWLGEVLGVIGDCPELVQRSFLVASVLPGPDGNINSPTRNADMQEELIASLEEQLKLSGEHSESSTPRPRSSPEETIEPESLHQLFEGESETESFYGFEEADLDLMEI
UniProt Q8WXF1: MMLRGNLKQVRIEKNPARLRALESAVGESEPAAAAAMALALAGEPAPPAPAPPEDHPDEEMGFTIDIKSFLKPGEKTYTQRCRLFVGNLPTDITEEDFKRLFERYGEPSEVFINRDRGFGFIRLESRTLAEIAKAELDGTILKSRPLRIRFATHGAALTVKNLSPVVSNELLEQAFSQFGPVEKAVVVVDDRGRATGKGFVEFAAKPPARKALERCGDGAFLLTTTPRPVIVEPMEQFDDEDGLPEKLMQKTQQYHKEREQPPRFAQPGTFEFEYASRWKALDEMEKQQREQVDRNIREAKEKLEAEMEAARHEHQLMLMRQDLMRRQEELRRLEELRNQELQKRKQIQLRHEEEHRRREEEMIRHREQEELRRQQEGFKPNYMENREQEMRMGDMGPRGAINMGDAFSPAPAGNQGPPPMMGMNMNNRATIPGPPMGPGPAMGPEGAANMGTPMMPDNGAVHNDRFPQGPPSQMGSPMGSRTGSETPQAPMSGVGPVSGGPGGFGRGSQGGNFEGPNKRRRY
UniProt Q8IY26: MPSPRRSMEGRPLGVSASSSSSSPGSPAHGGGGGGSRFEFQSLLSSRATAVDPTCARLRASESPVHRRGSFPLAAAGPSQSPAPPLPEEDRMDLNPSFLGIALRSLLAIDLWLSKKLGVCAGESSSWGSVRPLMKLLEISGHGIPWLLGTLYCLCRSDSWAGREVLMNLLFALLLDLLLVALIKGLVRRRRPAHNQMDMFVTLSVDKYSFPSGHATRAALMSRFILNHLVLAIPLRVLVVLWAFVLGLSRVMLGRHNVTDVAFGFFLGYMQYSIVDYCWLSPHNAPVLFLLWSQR
UniProt P63151: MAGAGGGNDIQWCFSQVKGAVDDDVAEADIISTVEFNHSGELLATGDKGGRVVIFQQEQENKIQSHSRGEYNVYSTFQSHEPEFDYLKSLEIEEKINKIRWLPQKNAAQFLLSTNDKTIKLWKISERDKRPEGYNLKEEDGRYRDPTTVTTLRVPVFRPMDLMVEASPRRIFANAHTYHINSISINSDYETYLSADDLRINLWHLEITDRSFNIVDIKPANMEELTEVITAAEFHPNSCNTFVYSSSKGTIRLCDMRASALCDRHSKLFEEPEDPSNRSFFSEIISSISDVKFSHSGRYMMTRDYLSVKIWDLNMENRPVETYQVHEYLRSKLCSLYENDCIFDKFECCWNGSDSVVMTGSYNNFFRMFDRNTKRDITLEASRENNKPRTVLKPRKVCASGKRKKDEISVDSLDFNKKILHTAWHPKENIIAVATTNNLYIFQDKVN

These targets were tested with COc1ccc(Cn2ccc3cc(C)c(C(=O)NO)cc32)cc1 (assay: dose-dependent thermal stabilisation call (2D-TPP, DLPTP, 10% FDR) (binary (1 = stabilised)); higher = stabilised by the compound). Settings: system: HL-60 intact cells; concentration range 0.04-10 µM.
Description: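 2D thermal proteome profiling in intact HL-60 cells treated with BRD-3811 (0, 0.04, 0.29, 2, 10 uM) for 90 min at 37 C, then heated 3 min at one of 12 temperatures (42-63.9 C). Soluble protein was quantified by TMT10 MS. The value is the DLPTP call of the paper: dose-dependent thermal stabilisation over all temperatures at 10% FDR (F-test of a dose-response against a flat model); one experiment, one call per tested protein.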

Target | dose-dependent thermal stabilisation call
PODXL2 (UniProt Q9NZ53) | inactive: 0
PSME1 (UniProt Q06323) | inactive: 0
PLXND1 (UniProt Q9Y4D7) | inactive: 0
PSMG3 (UniProt Q9BT73) | inactive: 0
POGZ (UniProt Q7Z3K3) | inactive: 0
PSME4 (UniProt Q14997) | inactive: 0
PSPC1 (UniProt Q8WXF1) | inactive: 0
PPAPDC2 (UniProt Q8IY26) | inactive: 0
PPP2R2A (UniProt P63151) | inactive: 0

No new results follow: entries from further up.
Target | dose-dependent thermal stabilisation call
PLXND1 (UniProt Q9Y4D7) | inactive: 0
PSMG3 (UniProt Q9BT73) | inactive: 0
